{"sequences": {"note": "Amino acid sequences for entries named in this document (tags omitted).", "UniProt Q9Y5Y9, whole entry": "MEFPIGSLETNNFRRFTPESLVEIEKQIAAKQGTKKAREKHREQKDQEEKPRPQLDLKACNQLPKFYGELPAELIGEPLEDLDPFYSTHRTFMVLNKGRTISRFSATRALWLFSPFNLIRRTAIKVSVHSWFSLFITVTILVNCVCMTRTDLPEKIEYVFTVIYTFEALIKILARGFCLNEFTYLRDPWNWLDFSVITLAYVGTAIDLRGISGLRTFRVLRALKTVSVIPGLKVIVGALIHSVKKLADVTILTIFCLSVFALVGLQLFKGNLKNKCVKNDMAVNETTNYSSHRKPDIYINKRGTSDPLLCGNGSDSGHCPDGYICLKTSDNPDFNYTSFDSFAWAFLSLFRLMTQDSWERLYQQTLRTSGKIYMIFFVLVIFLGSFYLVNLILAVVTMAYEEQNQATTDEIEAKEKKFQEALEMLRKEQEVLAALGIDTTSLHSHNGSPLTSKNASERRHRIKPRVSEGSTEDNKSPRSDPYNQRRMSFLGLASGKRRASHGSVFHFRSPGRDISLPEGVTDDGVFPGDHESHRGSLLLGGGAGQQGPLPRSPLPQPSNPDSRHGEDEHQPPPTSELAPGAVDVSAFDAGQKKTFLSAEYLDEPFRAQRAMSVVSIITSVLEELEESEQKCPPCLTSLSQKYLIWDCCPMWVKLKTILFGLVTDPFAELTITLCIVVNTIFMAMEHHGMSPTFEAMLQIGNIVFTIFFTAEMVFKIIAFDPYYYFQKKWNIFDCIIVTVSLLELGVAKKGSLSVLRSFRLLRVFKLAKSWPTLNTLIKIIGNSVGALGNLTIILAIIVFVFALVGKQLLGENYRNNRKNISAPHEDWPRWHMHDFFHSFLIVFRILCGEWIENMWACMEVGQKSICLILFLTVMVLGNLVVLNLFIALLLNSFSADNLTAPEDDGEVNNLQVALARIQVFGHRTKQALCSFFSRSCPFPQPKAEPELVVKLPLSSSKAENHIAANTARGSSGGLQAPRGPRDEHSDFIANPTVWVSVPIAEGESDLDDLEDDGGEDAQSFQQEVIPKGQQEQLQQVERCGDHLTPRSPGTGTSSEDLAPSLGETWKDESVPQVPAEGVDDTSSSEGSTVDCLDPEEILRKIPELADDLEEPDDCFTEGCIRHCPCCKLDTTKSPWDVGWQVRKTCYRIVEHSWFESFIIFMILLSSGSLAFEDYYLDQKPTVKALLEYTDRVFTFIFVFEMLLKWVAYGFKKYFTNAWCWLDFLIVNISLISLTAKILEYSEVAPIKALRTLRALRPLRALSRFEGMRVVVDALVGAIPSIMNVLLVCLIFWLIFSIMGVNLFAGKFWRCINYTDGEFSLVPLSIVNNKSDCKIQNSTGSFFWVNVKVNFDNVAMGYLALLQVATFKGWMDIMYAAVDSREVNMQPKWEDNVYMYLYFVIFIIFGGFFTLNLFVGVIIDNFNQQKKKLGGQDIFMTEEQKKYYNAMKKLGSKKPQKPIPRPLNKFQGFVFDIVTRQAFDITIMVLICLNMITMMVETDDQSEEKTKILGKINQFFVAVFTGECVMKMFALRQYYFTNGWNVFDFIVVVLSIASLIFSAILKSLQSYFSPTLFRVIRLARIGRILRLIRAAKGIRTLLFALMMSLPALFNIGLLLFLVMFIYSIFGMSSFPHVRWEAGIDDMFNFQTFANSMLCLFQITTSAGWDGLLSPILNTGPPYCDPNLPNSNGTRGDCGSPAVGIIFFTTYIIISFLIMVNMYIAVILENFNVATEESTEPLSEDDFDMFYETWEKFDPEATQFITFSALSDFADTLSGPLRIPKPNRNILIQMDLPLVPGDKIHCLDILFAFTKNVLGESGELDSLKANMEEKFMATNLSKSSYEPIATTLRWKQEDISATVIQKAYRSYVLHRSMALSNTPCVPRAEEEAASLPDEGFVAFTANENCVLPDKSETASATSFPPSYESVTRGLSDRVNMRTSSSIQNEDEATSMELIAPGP"}, "source": "patent US12234221B2", "about": "“Pyridine carboxamide compounds for inhibiting NAV1.8” (Lieber Institute, Inc., priority 2018, dated 2025)", "molecular_target": "human Nav1.8 (hNav1.8) ion channel (Homo sapiens, UniProt Q9Y5Y9)", "experiment": "Nav1.8 channel inhibition, estimated IC50 (one or more of: fluorescence inhibition assay, PatchXpress, IonFlux HT automated patch clamp)", "conditions": "read-out: Activity range (estimated IC50); HEK293 cells stably expressing hNav1.8; method used per compound not stated", "experimental": "The ability of pyridine carboxamide derivatives exemplified above to inhibit the Nav1.8 channel was determined using one or more of the methods described below.\nHEK Nav1.8 β1/β2 Stably Expressing Cell Line\nA HEK293 cell line stably expressing the human Nav1.8 (hNav1.8) ion channel with β1/β2 subunits was constructed. The cell line is suitable for IC50 determination in fluorescence and electrophysiological based assays. It is also suitable to form mechanism of action pharmacology studies in electrophysiological assays. […]\nNav 1.8 Fluorescence Inhibition Assay […]\nOn the day of assay, plates were washed to remove cell culture media using 2K EBSS buffer (135 mM NaCl, 2 mM KCl, 5 mM Glucose, 2 mM CaCl2), 1 mM MgCl2, 10 mM HEPES, pH 7.4). […] Plates are the transferred to a fluorescence plate reader (FLIPR™, Molecular Devices) for fluorescence measurement using an excitation wavelength of 490 nm and an emission wavelength of 565 nm. […] The peak change in fluorescence relative to negative and positive control wells was calculated and fit with a logistic equation to determine IC50. […]\nHEK-Nav1.8 β1/β2 cells were recorded in whole cell patch-clamp using the PatchXpress automated patch clamp platforms (Molecular Devices). […]\nNav1.8 channel variants were evaluated using Protocol 1 (FIG. 2) in which cells were initially voltage clamped at a holding potential of −100 mV to maintain Nav1.8 in a closed resting state. […]", "note": "Values joined by “and” are separate entries in the source; they are usually repeats but may differ in a detail not shown here. Equal entries are not always repeated. The structures given here were assigned with low confidence; some may be wrong."}
{"smiles": "O=C(Nc1ccnc(Cl)c1)c1cc(C(F)(F)F)cnc1Oc1ccc(OC(F)(F)F)cc1Cl", "values": [{"measurement": "IC50", "value": "> 1000 nM and 500 to 1000 nM"}]}
